Experimental data: PubChem BioAssay AID602196 (INSERM, 2012)
Shown is an unselected part of about 23,000 deposited reagents. Of all reagents, 455 (2%) were called active. 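Active includes both protection and sensitisation; some change values fall well beyond the stated -50 to +50 range.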 Unmarked entries are inactive. Further read-outs or replicates are left out here. Reagent sequences are not shown. Not stated in the record: the amount of reagent.

Purpose: 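Modifiers of cisplatin sensitivity in A549 cells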
Cells: human A549 lung cancer cells
Reagent: siRNA pair against human genes
Duration: 48 h transfection before cisplatin; time from cisplatin to read-out not stated
Conditions: cisplatin at a dose killing half of control-siRNA cells; exact dose and duration not given
Measurement: 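Shift in cisplatin death relative to control siRNA, from -50 (all cells die) to +50 (no cells die); siRNAs harmful on their own scored 0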
Scale: two-siRNA summed score (-2 to +2): higher = both siRNAs protect from cisplatin killing; -2 means both sensitise; mean protection from cisplatin (shift in death) and protection from cisplatin (shift in death), siRNA C: higher = protection from cisplatin killing
Active means: 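siRNAs harmful alone (LDH or WST-1) get 0; others get +1 for less and -1 for more cisplatin killing; genes are active when the two siRNAs give the same sign, summing to ±2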
Meaning of the calls: active = both siRNAs shift cisplatin killing the same way; inactive = no consistent shift, or siRNA harmful alone

gene,two-siRNA summed score (-2 to +2),mean protection from cisplatin (shift in death) (%),"protection from cisplatin (shift in death), siRNA C (%)"
PIN1 (GeneID 5300),0,26.7,0.3
MRGPRX2 (GeneID 117194),0,-3.4,2.8
RP1L1 (GeneID 94137),0,5.6,10.7
TRMT11 (GeneID 60487),0,10.8,10.4
LOC442534,0,14.1,7.8
LOC388466,1,14.5,9.1
MYO5B (GeneID 4645),0,7.7,3.5
CIMAP3 (GeneID 128344),0,6.4,2.4
LOC402418,1,11.9,12.8
ELOA3P (GeneID 162699),0,1.1,-16.2
STK24 (GeneID 8428),0,6.4,11.4
LOC442720,0,8.1,7.5
GALNT2 (GeneID 2590),-1,-6,3.2
KCTD12 (GeneID 115207),0,-9.1,-4
S100A4 (GeneID 6275),0,4.5,11.1
LOC401305,-1,0.3,-11.1
SERPINA6 (GeneID 866),0,-13.5,-10
WARS2 (GeneID 10352),-1,-9.5,-5.1
FAM177B (GeneID 400823),-1,-2.3,-13.6
MIXL1 (GeneID 83881),0,10.8,26.2
UBALD1 (GeneID 124402),0,-4.6,-3.9
OR6C76 (GeneID 390326),0,9.7,9
LOC390577,1,9.7,15.9
SLITRK2 (GeneID 84631),0,6.6,2.7
GPBP1L1 (GeneID 60313),-1,-15.8,-5.8
C2 (GeneID 717),-1,-18,-9.2
LLGL2 (GeneID 3993),0,3.4,6.4
LOC389199 (GeneID 389199),0,4.1,-2.4
MGC46336,1,11.3,17
LOC389048,1,15.6,12.8
C6orf52 (GeneID 347744),-1,-7.9,-27.8
LOC391481,0,1.1,-16.7
SPATA16 (GeneID 83893),-1,-13.1,-23.8
VARS1 (GeneID 7407),0,-5.9,-9.6
OR56A3 (GeneID 390083),0,-8.7,-8.1
TREM2 (GeneID 54209),0,-11.1,-17.2
LOC391124,1,6.8,15.1
LOC441428,1,8,11.4

Continued; the last 8 above are carried over.
gene,two-siRNA summed score (-2 to +2),mean protection from cisplatin (shift in death) (%),"protection from cisplatin (shift in death), siRNA C (%)"
C6orf52 (GeneID 347744),-1,-7.9,-27.8
LOC391481,0,1.1,-16.7
SPATA16 (GeneID 83893),-1,-13.1,-23.8
VARS1 (GeneID 7407),0,-5.9,-9.6
OR56A3 (GeneID 390083),0,-8.7,-8.1
TREM2 (GeneID 54209),0,-11.1,-17.2
LOC391124,1,6.8,15.1
LOC441428,1,8,11.4
B3GNT8 (GeneID 374907),1,16.4,29.7
LINC02111 (GeneID 401177),0,10.9,11.4
NADK (GeneID 65220),0,50.2,50.4
TRIM49 (GeneID 57093),0,-6.2,-1
GJD2 (GeneID 57369),0,7.3,11.9
SLC36A3 (GeneID 285641),0,6.6,5.8
METAP1 (GeneID 23173),-1,-23.8,-27.9
LOC440490,0,-1.5,3.3
PYM1 (GeneID 84305),0,-5.5,9.4
MSMO1 (GeneID 6307),0,-0.1,4
ATP5MF (GeneID 9551),0,-2.1,-11
RGL4 (GeneID 266747),-1,-7.2,-2.1
LOC390009,1,19.1,23.7
RTTN (GeneID 25914),0,5,0.6
GRM8 (GeneID 2918),0,13.5,-8.6
LAMP5 (GeneID 24141),-1,-8.3,8
FOXH1 (GeneID 8928),1,2.3,-8.3
BTBD7 (GeneID 55727),0,13.2,11
FAM24B (GeneID 196792),0,0,-2.3
GEMIN5 (GeneID 25929),0,-10.2,-6.6
AP3M1 (GeneID 26985),0,5.1,1.7
IRX2 (GeneID 153572),0,15.9,8.7
LOC402221 (GeneID 402221),0,3.1,6.3
MTERF4 (GeneID 130916),0,3.5,5.3
OR6S1 (GeneID 341799),1,7.7,-3.4
PRXL2B (GeneID 127281),0,3.1,4.9
ZNF513 (GeneID 130557),0,8.9,4.6
KATNAL2 (GeneID 83473),0,9.1,7
LOC442496,0,8.6,8
DYNC1I1 (GeneID 1780),0,-1.7,3.2
MRPS23 (GeneID 51649),0,1.8,1.2
UGT1A9 (GeneID 54600),0,9,19.5
NFE2 (GeneID 4778),0,3.7,20.2
ZNF600 (GeneID 162966),0,-6,-6.2
IFNK (GeneID 56832),0,6.5,18.8
